Experiments:
[1] = general procedure: Boc solid-phase peptide synthesis; p-methylbenzhydrylamine (HCl salt) resin; N-methylpyrrolidone/hydroxybenzotriazole t-BOC cycles; details: late stage modification step, based on HPLC peak areas
[2] = peptide synthesis; details: whole synthesis

Substance | step yield [1] | difficulty met [2]
H2N-R-COOH wherein R is a derivative of His-Ala-Glu-Gly-Thr-Phe-Thr-Ser-Asp-Val-Ser-Ser-Tyr-Leu-Glu-Gly-Gln-Ala-Ala-Lys-Glu-Phe-Ile-Ala-Trp-Leu-Val-Lys-Gly-Arg-Gly (SEQUENCE ID NO: 2) where the derivative is N-terminal (N-alpha) succinoylated and the epsilon amine group of both Lys residues are succ | approximately 90% | 
H2N-R-X-(Y)n-Z wherein n is zero; X is arg; Z is CONR^2R^3 where R^2 and R^3 are H; and R is His-Ala-Glu-Gly-Thr-Phe-Thr-Ser-Asp-Val-Ser-Ser-Tyr-Leu-Glu-Gly-Gln-Ala-Ala-Lys-Glu-Phe-Ile-Ala-Trp-Leu-Val-Lys-Gly-Arg-Gly (SEQUENCE ID NO: 2) |  | Analytical HPLC data suggested incomplete removal of the Trp formyl protecting group

Reference: patent EP0969016 (dated 2000)
